Reference: PubChem BioAssay AID1347076 (National Center for Advancing Translational Sciences (NCATS), 2019)
Screen size: about 400,000 compounds; about 13,000 (3.2%) were called active. The shares of active, inactive and inconclusive entries below differ from those in the screen. The call rests on the fitted dose curve; in most records, active means well fitted cell-killing curve with a large enough effect; inconclusive means small, poorly fitted or top-dose-only effect, or effect the other way; inactive means flat fitted curve, though single readings scatter. Potencies beside an inconclusive call are fits to weak or partial responses and may not hold up. Where a structure was tested more than once in an assay, its records may differ in their call.
Potency means the concentration at half of the fitted maximal effect.

Experiment: qHTS assay for MDR1-selective chemotherapeutics: Primary screen using the drug-selected MDR subline cells KB-V1; further: nearly all actives have a fitted effect of over 60% in size
Details: KB-V1 MDR cells viability, CellTiter-Glo, 72 h; series mostly up to 46.1 µM
Outline: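 Following 72 h at 37 degrees C with compound, KB-V1 cell viability was read by CellTiter-Glo luminescence, medium being phenol-red-free DMEM plus 10% FBS; concentration-response parameters came from normalized, curve-fitted qHTS data.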
For CCCCCc1ccc(C(=O)CCCC)c(=S)[nH]1, the Potency was inconclusive: 29.1 µM [cytotoxic, single point]. In the case of COc1ccccc1-c1ccc2c(c1)C(C)(Cc1ccccc1C#N)C(=O)N2 (stereo unspecified), the Potency is reported as inconclusive: 16.4 µM [cytotoxic, partial curve]. With CCOc1ccc(CN(C)CC(=O)Nc2cc(OC)c([N+](=O)[O-])cc2C)cc1 the Potency was inconclusive: 6.51 µM [cytotoxic, full curve]. With CCOc1ccccc1CNC(=O)CCC(=O)N1Cc2ccccc2Oc2ncccc21 the Potency was inconclusive: 16.4 µM [cytotoxic, single point]. With Cn1c(-c2ccccc2)cnc1SCc1nc2ccccc2c(=O)[nH]1 the Potency was inconclusive: 14.6 µM [cytotoxic, partial curve, poor fit]. For COc1ccc(NC(=O)C2CCCN(C(=O)c3ccc(Cl)cc3)C2)cc1Cl (stereo unspecified), the Potency was “inactive”. In the case of Cc1c(N)cc[n+](CC(=O)c2ccccc2)c1C, the Potency is reported as inconclusive: 9.2 µM [rising, partial curve]. With Cn1c(=O)c2c3c(sc2n2c(SCC(N)=O)nnc12)CC(C(C)(C)C)CC3 (stereo unspecified) the Potency was “inactive”. In the case of COc1ccc(C2=CC(=O)C[C@H](c3ccc4c(c3)OCO4)C2)cc1, the Potency is reported as “inactive”. With CN(C)CCCN(C(=O)c1ccc(S(=O)(=O)N(C)Cc2ccccc2)cc1)c1nc2cc3c(cc2s1)OCO3 the Potency was inconclusive: 23.1 µM [rising, single point]. For CCCCC[C@H]1CN(CCc2ccccc2)C(=O)[C@@H]1CC(=O)NCc1ccc(OC)cc1, the Potency was active: 18.4 µM. For CCc1c(O)nc(SCc2nc3ccccc3c(=O)[nH]2)[nH]c1=O, the Potency was inconclusive: 20.6 µM [cytotoxic, single point]. With CCOC(=O)c1c(C)[nH]c(C(=O)COC(=O)CNC(=O)C2CCCCC2)c1C the Potency was inconclusive: 3.98 µM [cytotoxic, full curve]. For COc1ccc2c(c1)[C@H]1[C@H](CO2)[C@H](c2ccccc2)[C@@]2(C)C(=O)N[C@H](C)C(=O)N12, the Potency was inconclusive: 10.3 µM [rising, partial curve, poor fit]. In the case of CN(C)c1cccc2ccccc12, the Potency is reported as “inactive”. For O=C(C1CCN(S(=O)(=O)c2cccnc2)CC1)N1CCN(c2ccc(Cl)cc2)CC1, the Potency was active: 6.51 µM. In the case of Cc1oc(=O)c(NC(=O)c2ccc(Cl)cc2)cc1C(=O)c1ccccc1, the Potency is reported as “inactive”. In the case of Cc1ccc(Cn2c(C)c(CNC(C)c3ccccc3)c(C(=O)O)c2C)cc1 (stereo unspecified), the Potency is reported as “inactive”. In the case of COC(=O)c1sc(NC(=O)c2ccoc2C)nc1C, the Potency is reported as inconclusive: 10.3 µM [cytotoxic, partial curve]. For NC(=O)c1cc([N+](=O)[O-])ccc1N1CCN(Cc2ccccc2)CC1, the Potency was “inactive”. For Cc1ccc(S(=O)(=O)NCC(=O)OCC(=O)Nc2ccc3c(c2)OCCO3)cc1, the Potency was inconclusive: 20.6 µM [rising, single point]. For O=C(N1CCOCC1)C12CCC3CC(CC(C3)C1)C2, the Potency was inconclusive: 29.1 µM [rising, single point]. In the case of Cc1cncn1CCc1nc2c3ccccc3nc(SCC(=O)Nc3ccccc3F)n2n1, the Potency is reported as “inactive”. With O=C(CNCc1ccco1)Nc1cccc(S(=O)(=O)N2CCCCC2)c1 the Potency was inconclusive: 10.3 µM [cytotoxic, partial curve]. In the case of Cc1cc(Br)ccc1SCC(=O)N1CCN(S(=O)(=O)c2ccccc2)CC1, the Potency is reported as inconclusive: 29.1 µM [cytotoxic, single point]. With COC(=O)CCCC(=O)N1CCCC(C(=O)c2ccc(OC)cc2C)C1 (stereo unspecified) the Potency was inconclusive: 29.1 µM [rising, single point]. In the case of CCc1nc2ccc(C(=O)Nc3cccc(OC)c3)cn2c1N(CC)Cc1cccc(Br)c1, the Potency is reported as inconclusive: 29.1 µM [cytotoxic, single point]. For O=C(c1ccco1)N1CCN(C(=O)C(c2ccccc2)c2ccccc2)CC1, the Potency was inconclusive: 7.31 µM [cytotoxic, partial curve]. For CCOc1cc(C=NN=C2c3ccccc3-c3ccccc32)ccc1O, the Potency was inconclusive: 29.1 µM [cytotoxic, single point]. For CCOC(=O)N1CCN(C(=O)CN(c2cc(C)ccc2OC)S(=O)(=O)c2ccc(C)cc2)CC1, the Potency was “inactive”. For Cc1cccc(NC(=O)c2ccc3c(=O)n4c(nc3c2)CCCCC4)n1, the Potency was inconclusive: 7.31 µM [cytotoxic, partial curve]. In the case of O=C(CN1CCN(C(=O)c2cccs2)CC1)NC1CCCCC1, the Potency is reported as inconclusive: 29.1 µM [cytotoxic, single point]. For O=[N+]([O-])c1ccc(/C=[N+](\[O-])[C@@H]2CCCC[C@@H]2/[N+]([O-])=C/c2ccc([N+](=O)[O-])o2)o1, the Potency was active: 20.6 µM. For Cc1ccn2cc(C(=O)Nc3cccc(C(=O)NC4CC4)c3)nc2c1, the Potency was inconclusive: 29.1 µM [cytotoxic, single point]. For CCc1ccc(-n2nc(C)c3c(C(=O)Nc4cc(C)ccc4C)cc(C)nc32)cc1, the Potency was “inactive”. With C/C(CC(=O)Nc1cccc(Br)c1)=N\NC(=O)c1ccc(O)cc1O the Potency was “inactive”. In the case of Cc1ccc(Nc2nc(N)nc(-c3oc4ccccc4c3C)n2)cc1, the Potency is reported as inconclusive: 0.13 µM [cytotoxic, full curve, poor fit]. For COc1cccc(S(=O)(=O)Nc2ccc(C(=O)N3CCOCC3)cc2)c1, the Potency was inconclusive: 20.6 µM [cytotoxic, single point]. In the case of NC(=O)c1ccc(NC(=O)COC(=O)CCC2CCCCC2)cc1, the Potency is reported as inconclusive: 6.51 µM [rising, partial curve, poor fit]. For Cc1cccc(N2CCN(C(=O)c3ccc4c(c3)c(C)c(C)n4C)CC2C)c1 (stereo unspecified), the Potency was “inactive”. In the case of COc1ccccc1N1CCN(c2cc(C)nc3nc(-c4ccc(Cl)cc4)nn23)CC1, the Potency is reported as inconclusive: 29.1 µM [rising, single point]. With Nc1nc(SCC(=O)Nc2ccc([N+](=O)[O-])cc2)[nH]c(=O)c1NC(=O)c1ccc(Br)cc1 the Potency was inconclusive: 23.1 µM [rising, single point]. With C=CC[C@H](CC(=O)N[C@H](CO)Cc1ccccc1)C(=O)N[C@@H](COC(=O)[C@@H](CC=C)CC(=O)OC(C)(C)C)Cc1c[nH]c2ccccc12 the Potency was “inactive”. For CCOc1cccc2cc(-c3csc(NC(=O)CCC(=O)NCCN4CCCCC4C)n3)c(=O)oc12 (stereo unspecified), the Potency was “inactive”. For COc1ccc(CCNC(=O)C2CC(=O)N(C3CCCCCCC3)C2)cc1OC (stereo unspecified), the Potency was inconclusive: 23.1 µM [cytotoxic, partial curve, poor fit]. In the case of Cc1ccc(NC(=O)COc2ccccc2C(N)=O)cc1S(=O)(=O)N1CCCCCC1, the Potency is reported as inconclusive: 13 µM [cytotoxic, partial curve]. For COc1cc(NC(=O)COC(=O)c2ccccc2SCC(=O)N2CCCC2)cc(OC)c1, the Potency was inconclusive: 20.6 µM [cytotoxic, single point]. For CC(=O)Nc1cc(C(=O)N2CCc3ccccc3C2)ccc1Sc1ccc(C)cc1, the Potency was inconclusive: 29.1 µM [cytotoxic, single point]. In the case of OC(CNCc1ccc(-c2ccccc2)cc1)c1ccccc1 (stereo unspecified), the Potency is reported as inconclusive: 20.6 µM [cytotoxic, single point]. In the case of COc1ccc(NC(=O)CN(C)C(=O)c2cc(-c3ccc(Cl)cc3)nc3ccccc23)cc1, the Potency is reported as inconclusive: 16.4 µM [cytotoxic, partial curve]. For CCOCN(C(=O)Cn1cnc2cc(C)c(C)cc21)c1c(C)cccc1CC, the Potency was active: 5.17 µM. In the case of O=C(NCc1ccncc1)c1ccc(-c2ccc(F)c(F)c2)c2ccoc12, the Potency is reported as inconclusive: 2.31 µM [cytotoxic, full curve]. For CN1CCN(S(=O)(=O)c2ccc(N3CCN(c4ccccc4O)CC3)c([N+](=O)[O-])c2)CC1, the Potency was inconclusive: 18.4 µM [cytotoxic, partial curve]. For COc1ccc(CNC(=O)CN2C(=O)COc3ccc(S(=O)(=O)N4CCOCC4)cc32)cc1, the Potency was “inactive”. For COc1ccc(N/C=C/C(=O)c2cc(OC)c(OC)c(OC)c2)cc1, the Potency was inconclusive: 0.517 µM [cytotoxic, full curve, poor fit]. In the case of CCn1c(=O)cc(SCC(=O)N2CCCCC2)c2ccccc21, the Potency is reported as inconclusive: 23.1 µM [cytotoxic, single point]. For COc1ccc(S(=O)(=O)N2CCOCC2)cc1NC(=O)COC(=O)C1CC1C (stereo unspecified), the Potency was inconclusive: 29.1 µM [rising, single point]. With O=C(COc1ccc(Cl)cc1)Nc1ccc2oc(=O)ccc2c1 the Potency was inconclusive: 16.4 µM [rising, partial curve, poor fit]. In the case of CCSc1nnc(NC(=O)c2ccc(C)o2)s1, the Potency is reported as active: 18.4 µM. For CC(C)OC(=O)N(C)C[C@H]1OCc2cnnn2CCCC(=O)N([C@H](C)CO)C[C@@H]1C, the Potency was inconclusive: 11.6 µM [rising, partial curve, poor fit]. In the case of CCOC(=O)C1CCN(C(=O)c2ccccc2NS(=O)(=O)c2ccccc2)CC1, the Potency is reported as inconclusive: 14.6 µM [cytotoxic, single point]. With CC1(C)OC2C(CO)OC(n3cnc4c(=S)nc(N)[nH]c43)C2O1 (stereo unspecified) the Potency was inconclusive: 29.1 µM [cytotoxic, single point]. In the case of Oc1ccc(CN2CCC(Cc3ccccc3)CC2)c2cccnc12, the Potency is reported as inconclusive: 0.0073 µM [cytotoxic, full curve, poor fit]. In the case of C=CCn1c(N)c(C(=O)Nc2ccc(C)c(C)c2)c2nc3ccccc3nc21, the Potency is reported as “inactive”. In the case of COc1ccc(N2CCN(c3ccnc4cc(Cl)ccc34)CC2)cc1, the Potency is reported as inconclusive: 16.4 µM [cytotoxic, partial curve]. For CCOC(=O)c1oc2c(c1C)/C(=N/O)CCC2, the Potency was inconclusive: 5.01 µM [cytotoxic, partial curve].
